Assay [1] deals with Arginine deiminase with C-terminal c-myc tag, expressed in the cytosol (pcDNA4-ADI) (UniProt P23793). The assay can be described thus: co-IP; ADI-transfected cells; immunoprecipitation with antibodies specific for ADI or FTL, immunoprecipitates separated by SDS-PAGE and blotted with the indicated antibodies.
In assay [2] the target is Ferritin light-chain domain in ADI-transfected cells (human (endogenous in the ADI-transfected human cell lines)) (UniProt P02792). The description is as above.

Chains of the proteins cited; added tags and fusions are not shown.
UniProt P23793: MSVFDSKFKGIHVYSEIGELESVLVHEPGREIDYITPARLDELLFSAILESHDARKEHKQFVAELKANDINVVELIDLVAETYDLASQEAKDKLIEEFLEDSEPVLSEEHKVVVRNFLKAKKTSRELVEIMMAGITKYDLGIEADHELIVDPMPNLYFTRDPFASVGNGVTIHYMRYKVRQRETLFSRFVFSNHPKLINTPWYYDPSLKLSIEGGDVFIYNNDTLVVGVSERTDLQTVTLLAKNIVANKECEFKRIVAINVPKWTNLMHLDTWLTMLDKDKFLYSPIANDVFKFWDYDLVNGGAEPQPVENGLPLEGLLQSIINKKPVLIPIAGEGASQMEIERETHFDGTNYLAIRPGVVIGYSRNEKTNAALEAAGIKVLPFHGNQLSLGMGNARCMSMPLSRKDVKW
UniProt P02792: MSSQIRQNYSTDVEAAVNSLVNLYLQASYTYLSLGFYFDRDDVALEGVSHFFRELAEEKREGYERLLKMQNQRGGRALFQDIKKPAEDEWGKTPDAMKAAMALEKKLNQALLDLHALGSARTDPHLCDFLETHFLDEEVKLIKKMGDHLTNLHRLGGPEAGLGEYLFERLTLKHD

Drawing on article PMC7367323, this text covers binding for two substances.

Results are given in words; binding and its absence hold for the method and conditions named. In cells and extracts the contact can be indirect. Some entries that bind do so weakly or less than the wild type.

For the substance “Ferritin light-chain domain in ADI-transfected cells (from UniProt P02792 1-175)”, in assay [1], the binding entry is given as “binds”.
Regarding “Arginine deiminase with C-terminal c-myc tag, expressed in the cytosol (pcDNA4-ADI) (from UniProt P23793 1-410) (enzyme)”, the binding result in assay [2] was “binds”.
